Data reported in the supplement of paper PMC10849652.
The list shows a part of the results.

Protein sequences, listed by entry. Tags and fused reporters are not part of them. Lines headed by an entry give the natural chain unless they say otherwise; changes in a name come on top.
UniProt Q96A49: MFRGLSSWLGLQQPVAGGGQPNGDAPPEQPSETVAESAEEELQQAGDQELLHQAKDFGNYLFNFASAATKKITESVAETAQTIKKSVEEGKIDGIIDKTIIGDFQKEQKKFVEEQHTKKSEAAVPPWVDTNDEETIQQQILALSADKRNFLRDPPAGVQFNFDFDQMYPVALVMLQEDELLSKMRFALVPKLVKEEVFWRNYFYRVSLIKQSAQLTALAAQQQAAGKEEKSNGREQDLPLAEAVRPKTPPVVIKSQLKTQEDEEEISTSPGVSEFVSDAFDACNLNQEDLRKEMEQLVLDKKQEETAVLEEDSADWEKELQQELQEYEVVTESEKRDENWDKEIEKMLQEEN
UniProt O00506, whole entry, looked up: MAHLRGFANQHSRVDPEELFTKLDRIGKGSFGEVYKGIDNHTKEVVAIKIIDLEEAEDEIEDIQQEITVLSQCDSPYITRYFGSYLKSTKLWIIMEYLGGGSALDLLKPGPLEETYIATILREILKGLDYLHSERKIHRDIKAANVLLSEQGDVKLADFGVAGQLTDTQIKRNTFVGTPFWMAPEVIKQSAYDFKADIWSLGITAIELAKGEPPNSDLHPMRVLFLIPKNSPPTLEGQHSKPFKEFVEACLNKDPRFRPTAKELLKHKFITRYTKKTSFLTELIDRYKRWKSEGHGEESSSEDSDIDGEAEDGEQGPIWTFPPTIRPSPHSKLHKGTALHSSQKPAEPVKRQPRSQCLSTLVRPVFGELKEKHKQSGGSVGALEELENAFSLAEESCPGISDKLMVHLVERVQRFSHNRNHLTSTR
UniProt O43760: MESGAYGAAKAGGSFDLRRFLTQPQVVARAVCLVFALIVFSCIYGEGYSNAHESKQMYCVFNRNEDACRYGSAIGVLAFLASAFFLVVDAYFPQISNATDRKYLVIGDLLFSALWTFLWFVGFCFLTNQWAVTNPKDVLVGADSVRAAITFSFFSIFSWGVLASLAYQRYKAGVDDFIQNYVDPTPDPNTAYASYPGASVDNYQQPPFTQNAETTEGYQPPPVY
UniProt Q8N1F8: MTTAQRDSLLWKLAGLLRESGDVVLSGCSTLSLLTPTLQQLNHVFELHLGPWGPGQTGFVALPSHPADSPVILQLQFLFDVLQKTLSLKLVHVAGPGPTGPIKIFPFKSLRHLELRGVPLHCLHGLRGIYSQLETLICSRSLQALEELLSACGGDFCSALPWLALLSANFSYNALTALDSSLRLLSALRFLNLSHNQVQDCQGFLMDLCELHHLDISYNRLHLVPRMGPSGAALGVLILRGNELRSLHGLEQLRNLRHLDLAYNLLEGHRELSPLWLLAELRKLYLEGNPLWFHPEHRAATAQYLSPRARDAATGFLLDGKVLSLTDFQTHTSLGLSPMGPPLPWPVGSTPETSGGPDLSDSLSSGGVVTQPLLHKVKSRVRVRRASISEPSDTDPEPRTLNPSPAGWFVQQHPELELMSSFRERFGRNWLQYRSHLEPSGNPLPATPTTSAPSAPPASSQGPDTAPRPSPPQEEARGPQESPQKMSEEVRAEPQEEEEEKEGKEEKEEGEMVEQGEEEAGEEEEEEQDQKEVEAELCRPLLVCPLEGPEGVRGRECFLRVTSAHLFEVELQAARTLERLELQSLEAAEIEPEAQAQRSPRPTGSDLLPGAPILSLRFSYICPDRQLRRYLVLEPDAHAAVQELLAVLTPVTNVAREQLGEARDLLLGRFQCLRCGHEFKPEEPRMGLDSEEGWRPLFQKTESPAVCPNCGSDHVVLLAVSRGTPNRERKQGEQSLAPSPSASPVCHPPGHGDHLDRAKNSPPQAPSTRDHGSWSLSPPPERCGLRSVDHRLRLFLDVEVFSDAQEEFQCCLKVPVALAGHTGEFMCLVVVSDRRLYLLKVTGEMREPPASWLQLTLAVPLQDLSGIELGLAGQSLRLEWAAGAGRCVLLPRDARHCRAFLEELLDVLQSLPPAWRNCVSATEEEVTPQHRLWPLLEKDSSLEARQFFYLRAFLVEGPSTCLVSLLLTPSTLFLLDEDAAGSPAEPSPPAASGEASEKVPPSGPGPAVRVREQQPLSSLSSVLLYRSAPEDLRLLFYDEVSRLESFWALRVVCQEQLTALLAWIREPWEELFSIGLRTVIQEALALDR
UniProt Q13033: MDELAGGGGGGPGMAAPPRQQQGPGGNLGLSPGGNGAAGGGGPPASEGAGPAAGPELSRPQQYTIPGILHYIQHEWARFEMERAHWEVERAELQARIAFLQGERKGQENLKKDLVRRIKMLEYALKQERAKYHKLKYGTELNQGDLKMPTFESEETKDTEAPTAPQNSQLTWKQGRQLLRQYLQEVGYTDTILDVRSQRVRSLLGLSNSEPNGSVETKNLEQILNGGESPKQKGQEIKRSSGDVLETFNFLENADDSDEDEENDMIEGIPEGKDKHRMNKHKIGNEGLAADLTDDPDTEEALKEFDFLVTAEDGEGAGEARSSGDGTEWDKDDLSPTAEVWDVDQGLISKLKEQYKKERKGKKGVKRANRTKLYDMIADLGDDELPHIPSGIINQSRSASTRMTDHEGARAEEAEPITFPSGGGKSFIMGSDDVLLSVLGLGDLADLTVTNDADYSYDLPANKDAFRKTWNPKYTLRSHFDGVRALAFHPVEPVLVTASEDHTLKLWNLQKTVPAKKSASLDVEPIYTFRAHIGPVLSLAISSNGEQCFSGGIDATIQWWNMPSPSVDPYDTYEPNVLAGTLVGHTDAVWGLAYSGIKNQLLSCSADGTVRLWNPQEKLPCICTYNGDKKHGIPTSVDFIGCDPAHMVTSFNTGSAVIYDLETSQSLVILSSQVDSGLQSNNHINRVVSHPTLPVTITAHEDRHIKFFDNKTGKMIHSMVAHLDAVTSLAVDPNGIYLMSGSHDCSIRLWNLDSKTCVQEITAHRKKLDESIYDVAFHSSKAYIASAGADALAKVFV
UniProt Q9P2W9: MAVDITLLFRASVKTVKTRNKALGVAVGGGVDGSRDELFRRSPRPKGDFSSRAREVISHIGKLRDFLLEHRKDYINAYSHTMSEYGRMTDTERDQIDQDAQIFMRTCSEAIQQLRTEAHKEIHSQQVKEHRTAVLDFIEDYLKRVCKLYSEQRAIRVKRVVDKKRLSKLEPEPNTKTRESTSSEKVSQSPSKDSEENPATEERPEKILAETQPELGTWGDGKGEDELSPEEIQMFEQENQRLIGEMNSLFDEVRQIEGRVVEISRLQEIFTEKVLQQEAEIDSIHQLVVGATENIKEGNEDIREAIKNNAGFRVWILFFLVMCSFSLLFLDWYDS
UniProt Q8IX01: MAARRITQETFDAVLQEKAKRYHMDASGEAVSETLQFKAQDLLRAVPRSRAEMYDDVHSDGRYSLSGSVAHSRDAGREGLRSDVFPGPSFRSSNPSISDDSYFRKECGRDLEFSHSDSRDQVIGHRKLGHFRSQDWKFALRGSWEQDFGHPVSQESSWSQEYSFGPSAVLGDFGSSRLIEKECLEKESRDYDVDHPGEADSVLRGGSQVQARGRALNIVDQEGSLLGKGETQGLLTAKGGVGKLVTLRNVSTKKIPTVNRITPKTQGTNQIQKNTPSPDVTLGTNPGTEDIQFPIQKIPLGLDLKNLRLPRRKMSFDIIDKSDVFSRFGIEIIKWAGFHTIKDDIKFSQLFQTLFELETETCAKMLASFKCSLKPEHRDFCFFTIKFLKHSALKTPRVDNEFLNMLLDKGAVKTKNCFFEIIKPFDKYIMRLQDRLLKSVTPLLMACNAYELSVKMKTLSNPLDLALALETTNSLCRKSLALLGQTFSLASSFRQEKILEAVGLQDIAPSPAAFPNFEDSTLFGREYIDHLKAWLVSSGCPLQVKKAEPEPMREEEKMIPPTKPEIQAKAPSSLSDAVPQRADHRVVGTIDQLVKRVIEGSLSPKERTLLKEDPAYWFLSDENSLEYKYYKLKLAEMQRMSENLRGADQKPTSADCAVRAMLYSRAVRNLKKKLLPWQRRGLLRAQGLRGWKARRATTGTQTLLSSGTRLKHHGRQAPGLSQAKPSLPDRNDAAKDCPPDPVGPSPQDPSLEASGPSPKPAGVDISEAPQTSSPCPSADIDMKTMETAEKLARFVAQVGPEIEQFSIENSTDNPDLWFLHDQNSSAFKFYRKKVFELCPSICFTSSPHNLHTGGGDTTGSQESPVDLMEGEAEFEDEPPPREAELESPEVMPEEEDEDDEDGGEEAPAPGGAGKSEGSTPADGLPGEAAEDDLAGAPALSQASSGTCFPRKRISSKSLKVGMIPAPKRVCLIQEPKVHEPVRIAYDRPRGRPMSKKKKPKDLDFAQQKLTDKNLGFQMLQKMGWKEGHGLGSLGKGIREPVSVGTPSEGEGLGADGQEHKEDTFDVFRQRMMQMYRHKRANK
UniProt Q12962, whole entry, looked up: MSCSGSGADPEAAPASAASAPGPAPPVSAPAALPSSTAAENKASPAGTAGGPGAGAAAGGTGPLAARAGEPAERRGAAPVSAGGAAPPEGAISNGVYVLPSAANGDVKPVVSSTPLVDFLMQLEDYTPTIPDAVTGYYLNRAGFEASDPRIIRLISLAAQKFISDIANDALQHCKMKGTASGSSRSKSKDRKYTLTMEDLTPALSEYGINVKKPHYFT
UniProt Q13043: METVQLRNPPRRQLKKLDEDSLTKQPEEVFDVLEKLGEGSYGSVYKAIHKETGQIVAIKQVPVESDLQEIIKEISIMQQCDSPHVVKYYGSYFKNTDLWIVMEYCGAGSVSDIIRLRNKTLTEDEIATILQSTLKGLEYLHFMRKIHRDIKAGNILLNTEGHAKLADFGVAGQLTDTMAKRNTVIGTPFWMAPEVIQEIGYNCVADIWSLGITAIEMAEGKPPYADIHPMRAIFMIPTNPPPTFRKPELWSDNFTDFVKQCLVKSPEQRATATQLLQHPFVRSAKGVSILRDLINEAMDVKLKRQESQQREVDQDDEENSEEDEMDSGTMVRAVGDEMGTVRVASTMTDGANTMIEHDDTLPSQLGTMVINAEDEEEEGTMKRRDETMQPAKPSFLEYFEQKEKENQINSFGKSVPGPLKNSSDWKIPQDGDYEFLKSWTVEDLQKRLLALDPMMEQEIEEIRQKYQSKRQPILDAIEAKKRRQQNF
UniProt Q9UH99: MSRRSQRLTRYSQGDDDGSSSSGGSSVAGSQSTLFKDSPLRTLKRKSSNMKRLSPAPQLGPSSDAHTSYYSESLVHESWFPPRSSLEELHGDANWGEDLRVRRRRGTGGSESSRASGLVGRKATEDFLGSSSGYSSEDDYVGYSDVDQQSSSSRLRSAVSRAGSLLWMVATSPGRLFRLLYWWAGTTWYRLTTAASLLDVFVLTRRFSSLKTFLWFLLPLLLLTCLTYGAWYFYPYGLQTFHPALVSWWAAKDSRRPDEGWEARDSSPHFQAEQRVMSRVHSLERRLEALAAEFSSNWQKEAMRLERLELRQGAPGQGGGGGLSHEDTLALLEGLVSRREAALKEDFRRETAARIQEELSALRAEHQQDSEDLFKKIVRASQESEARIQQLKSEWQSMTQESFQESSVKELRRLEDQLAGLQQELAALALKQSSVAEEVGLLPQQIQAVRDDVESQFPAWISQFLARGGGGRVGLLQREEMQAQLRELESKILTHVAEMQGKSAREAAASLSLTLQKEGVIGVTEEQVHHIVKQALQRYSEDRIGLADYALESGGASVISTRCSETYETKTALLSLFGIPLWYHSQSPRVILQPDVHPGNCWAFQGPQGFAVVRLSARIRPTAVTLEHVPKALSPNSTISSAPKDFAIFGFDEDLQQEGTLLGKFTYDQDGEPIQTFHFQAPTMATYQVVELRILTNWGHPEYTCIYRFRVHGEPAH
UniProt O75528: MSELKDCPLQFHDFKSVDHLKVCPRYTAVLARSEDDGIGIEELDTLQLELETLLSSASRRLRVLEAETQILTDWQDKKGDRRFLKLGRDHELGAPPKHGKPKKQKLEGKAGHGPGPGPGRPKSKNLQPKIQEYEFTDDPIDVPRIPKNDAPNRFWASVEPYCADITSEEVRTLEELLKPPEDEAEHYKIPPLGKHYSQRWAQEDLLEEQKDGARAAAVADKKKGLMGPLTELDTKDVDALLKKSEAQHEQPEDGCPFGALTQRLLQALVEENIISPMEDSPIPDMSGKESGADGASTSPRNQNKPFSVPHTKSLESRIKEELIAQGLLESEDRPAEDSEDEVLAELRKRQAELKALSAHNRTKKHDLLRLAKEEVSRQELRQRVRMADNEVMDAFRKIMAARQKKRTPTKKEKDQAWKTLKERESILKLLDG
UniProt O15400: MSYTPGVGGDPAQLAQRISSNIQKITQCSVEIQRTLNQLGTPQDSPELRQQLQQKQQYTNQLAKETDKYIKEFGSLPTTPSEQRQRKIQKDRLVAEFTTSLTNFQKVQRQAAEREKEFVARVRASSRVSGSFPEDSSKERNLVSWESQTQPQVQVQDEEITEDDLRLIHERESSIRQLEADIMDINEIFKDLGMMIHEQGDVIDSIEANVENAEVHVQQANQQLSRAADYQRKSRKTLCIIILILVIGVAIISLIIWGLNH

Assays:
Assay in all cases: log2 fold change, soluble protein after heating vs DMSO (PISA); higher = thermal stabilisation; K562 lysate, 10 uM; active = over 0.2 and 3.5 SD of the protein, either way, in both replicates (recomputed)
vemurafenib = compound: CCCS(=O)(=O)Nc1ccc(F)c(C(=O)c2c[nH]c3ncc(-c4ccc(Cl)cc4)cc23)c1F [vemurafenib]
Method in brief: (§1)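 Log-two fold change in thermal stability relative to solvent controls is reported from duplicates. For each sample, crude K562 extract from dounce-homogenised pellets in PBS pH 7.4 with 1 mM MgCl2, at 1 mg/mL protein, was treated with 10 μM compound for 30 min. Aliquots heated for 3 min across 48°C-58°C were pooled, brought to 0.5% NP-40 at 4°C and cleared at 21,000xg for 90 min. The supernatant was quantified by TMTpro 16plex LC-MS/MS with channel sums equalised.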

[1] = compound: CCCS(=O)(=O)Nc1ccc(F)c(C(=O)c2c[nH]c3ncc(Cl)cc23)c1F
Method in brief: as §1

barasertib = compound: CCN(CCCOc1ccc2c(Nc3cc(CC(=O)Nc4cccc(F)c4)[nH]n3)ncnc2c1)CCOP(=O)(O)O [barasertib]
Method in brief: as §1

[2] = compound: CC[C@@H]1C(=O)N(C)c2cnc(Nc3ccc(C(=O)NC4CCN(C)CC4)cc3OC)nc2N1C1CCCC1
Method in brief: as §1

volasertib = compound: CC[C@@H]1C(=O)N(C)c2cnc(Nc3ccc(C(=O)N[C@H]4CC[C@H](N5CCN(CC6CC6)CC5)CC4)cc3OC)nc2N1C(C)C [volasertib]
Method in brief: as §1

[3] = compound: CCn1c(C(=O)N(C2CC2)C2CC2)cc2c3c(ncn3C)c(Nc3cc(C)n(C)n3)nc21
Method in brief: as §1

[4] = compound: CCn1cc(-c2ccnc3[nH]c(-c4cccc(CN(C)C)c4)cc23)c(-c2ccc(NC(=O)N(C)C)cc2)n1
Method in brief: as §1

[5] = compound: CN1CCC(CNc2ccc3ncc(-c4cccc(OC(F)(F)F)c4)n3n2)CC1
Method in brief: as §1

saracatinib = compound: CN1CCN(CCOc2cc(OC3CCOCC3)c3c(Nc4c(Cl)ccc5c4OCO5)ncnc3c2)CC1 [saracatinib]
Method in brief: as §1

sotrastaurin = compound: CN1CCN(c2nc(C3=C(c4c[nH]c5ccccc45)C(=O)NC3=O)c3ccccc3n2)CC1 [sotrastaurin]
Method in brief: as §1

Measured: log2 fold change

SWI5 (UniProt Q1ZZU3)
inactive: vemurafenib 0.042 | [1] 0.039 | barasertib 0 | [2] 0.008 | volasertib 0.071 | [3] -0.068 | [4] -0.279 | [5] 0.003 | saracatinib -0.002 | sotrastaurin -0.018

STMN4 isoform 2 (UniProt Q9H169)
inactive: vemurafenib -0.095 | [1] -0.087 | barasertib 0.008 | [2] -0.224 | volasertib 0.088 | [3] 0.071 | [4] 0.024 | [5] 0.045 | saracatinib 0.003 | sotrastaurin 0.012

STRBP (UniProt Q96SI9)
inactive: vemurafenib -0.001 | [1] 0.019 | barasertib 0.032 | [2] 0.034 | volasertib -0.002 | [3] 0.073 | [4] -0.056 | [5] 0.065 | saracatinib -0.042 | sotrastaurin 0.024

SYAP1 (UniProt Q96A49)
inactive: vemurafenib -0.008 | [1] 0.004 | barasertib 0.062 | [2] 0.141 | volasertib 0.023 | [3] 0.04 | [4] 0.101 | [5] -0.145 | saracatinib 0.032 | sotrastaurin -0.058

Pulled one by one from the entries so far, 2 records:
SYAP1 (UniProt Q96A49)
inactive: vemurafenib -0.008 | [1] 0.004 | barasertib 0.062 | [2] 0.141 | volasertib 0.023 | [3] 0.04 | [4] 0.101 | [5] -0.145 | saracatinib 0.032 | sotrastaurin -0.058

STRBP (UniProt Q96SI9)
inactive: vemurafenib -0.001 | [1] 0.019 | barasertib 0.032 | [2] 0.034 | volasertib -0.002 | [3] 0.073 | [4] -0.056 | [5] 0.065 | saracatinib -0.042 | sotrastaurin 0.024

Further records follow.

STXBP4 (UniProt Q6ZWJ1)
inactive: vemurafenib 0.035 | [1] 0.027 | barasertib 0.023 | [2] 0.032 | volasertib -0.045 | [3] 0.047 | [4] 0.008 | [5] -0.057 | saracatinib -0.044 | sotrastaurin 0.002

STK25 (UniProt O00506)
inactive: vemurafenib -0.018 | [1] -0.005 | barasertib 0.017 | [2] -0.034 | volasertib -0.078 | [3] -0.042 | [4] -0.037 | [5] 0.016 | saracatinib -0.026 | sotrastaurin 0.022

SYNGR2 (UniProt O43760)
inactive: vemurafenib -0.053 | [1] 0.003 | barasertib 0.067 | [2] -0.004 | volasertib 0.034 | [3] -0.019 | [4] -0.188 | [5] 0.016 | saracatinib 0.045 | sotrastaurin 0.014

STX16 isoform 2 (UniProt O14662)
inactive: vemurafenib 0.074 | [1] 0.016 | barasertib 0.005 | [2] 0.067 | volasertib -0.048 | [3] 0.026 | [4] -0.047 | [5] -0.042 | saracatinib 0.073 | sotrastaurin 0.019

TAF1B (UniProt Q53T94)
inactive: vemurafenib 0.397 | [1] -0.217 | barasertib 0.11 | [2] -0.212 | volasertib -0.057 | [3] -0.039 | [4] -0.12 | [5] 0.166 | saracatinib 0.045 | sotrastaurin 0.055

SUMF2 (UniProt Q8NBJ7)
inactive: vemurafenib -0.02 | [1] -0.008 | barasertib -0.093 | [2] 0.089 | volasertib -0.021 | [3] -0.031 | [4] -0.102 | [5] 0.01 | saracatinib 0.015 | sotrastaurin 0.024

STK11IP (UniProt Q8N1F8)
inactive: vemurafenib -0.016 | [1] 0.018 | barasertib -0.04 | [2] 0.075 | volasertib -0.067 | [3] 0.002 | [4] 0.015 | [5] -0.072 | saracatinib 0.012 | sotrastaurin 0.016

STRN3 (UniProt Q13033)
inactive: vemurafenib -0.056 | [1] 0.04 | barasertib 0.006 | [2] -0.081 | volasertib -0.019 | [3] -0.025 | [4] 0.154 | [5] -0.112 | saracatinib -0.024 | sotrastaurin 0

SUPT16H (UniProt Q9Y5B9)
inactive: vemurafenib 0.001 | [1] 0.02 | barasertib -0.02 | [2] -0.031 | volasertib -0.032 | [3] -0.008 | [4] 0.005 | [5] -0.046 | saracatinib 0.02 | sotrastaurin 0.017

STOM (UniProt P27105)
inactive: vemurafenib 0.019 | [1] 0.001 | barasertib 0.021 | [2] -0.122 | volasertib 0.021 | [3] -0.038 | [4] -0.065 | [5] 0.013 | saracatinib -0.01 | sotrastaurin 0.004

SYF2 (UniProt O95926)
inactive: vemurafenib -0.012 | [1] -0.042 | barasertib -0.039 | [2] 0.096 | volasertib 0.038 | [3] -0.044 | [4] -0.043 | [5] 0.028 | saracatinib 0.015 | sotrastaurin -0.008

STX18 (UniProt Q9P2W9)
inactive: vemurafenib -0.008 | [1] 0.03 | barasertib 0.093 | [2] 0.018 | volasertib -0.051 | [3] 0.169 | [4] -0.028 | [5] -0.061 | saracatinib 0.019 | sotrastaurin -0.017

SUGP2 (UniProt Q8IX01)
inactive: vemurafenib 0.094 | [1] 0.004 | barasertib 0.257 | [2] -0.021 | volasertib -0.034 | [3] 0.005 | [4] 0.012 | [5] -0.013 | saracatinib 0.055 | sotrastaurin 0.036

TAF10 (UniProt Q12962)
inactive: vemurafenib -0.025 | [1] 0.012 | barasertib 0.027 | [2] 0.015 | volasertib 0.027 | [3] -0.029 | [4] -0.028 | [5] -0.031 | saracatinib -0.093 | sotrastaurin 0.021

SYNCRIP (UniProt O60506)
inactive: vemurafenib -0.01 | [1] 0.017 | barasertib -0.008 | [2] -0.02 | volasertib 0.007 | [3] 0.004 | [4] 0.026 | [5] -0.025 | saracatinib 0.004 | sotrastaurin 0

STRN (UniProt O43815)
inactive: vemurafenib -0.004 | [1] 0.012 | barasertib -0.018 | [2] -0.002 | volasertib -0.004 | [3] 0.002 | [4] 0.004 | [5] -0.017 | saracatinib -0.015 | sotrastaurin 0.021

STK4 (UniProt Q13043)
inactive: vemurafenib 0.058 | [1] 0.047 | barasertib 0.029 | [2] 0.002 | volasertib -0.046 | [3] 0.023 | [4] -0.019 | [5] 0.168 | saracatinib 0.029 | sotrastaurin 0.199

SUN2 isoform 2 (UniProt Q9UH99)
inactive: vemurafenib -0.064 | [1] 0.006 | barasertib 0.13 | [2] -0.065 | volasertib -0.077 | [3] 0.247 | [4] 0.106 | [5] -0.102 | saracatinib 0.074 | sotrastaurin -0.094

SYNJ2 (UniProt O15056)
inactive: vemurafenib 0.008 | [1] 0.001 | barasertib 0.046 | [2] -0.019 | volasertib -0.052 | [3] 0.003 | [4] 0.032 | [5] -0.054 | saracatinib 0.02 | sotrastaurin 0.016

TACC3 (UniProt Q9Y6A5)
inactive: vemurafenib -0.036 | [1] -0.006 | barasertib -0.039 | [2] 0.047 | volasertib 0.033 | [3] -0.016 | [4] -0.031 | [5] 0.038 | saracatinib 0.019 | sotrastaurin -0.01

TADA3 (UniProt O75528)
inactive: vemurafenib -0.007 | [1] 0.004 | barasertib 0.002 | [2] 0.008 | volasertib -0.006 | [3] -0.022 | [4] -0.122 | [5] 0.006 | saracatinib -0.017 | sotrastaurin -0.012

STX3 (UniProt Q13277)
inactive: vemurafenib -0.051 | [1] -0.027 | barasertib 0.008 | [2] -0.013 | volasertib -0.006 | [3] -0.014 | [4] 0.199 | [5] 0.015 | saracatinib -0.011 | sotrastaurin -0.035

STX8 (UniProt Q9UNK0)
inactive: vemurafenib -0.089 | [1] -0.003 | barasertib -0.024 | [2] 0.017 | volasertib -0.009 | [3] 0.068 | [4] -0.048 | [5] 0.018 | saracatinib 0 | sotrastaurin -0.002

STX7 (UniProt O15400)
inactive: vemurafenib 0.007 | [1] -0.006 | barasertib 0.015 | [2] 0.033 | volasertib 0.026 | [3] -0.038 | [4] -0.042 | [5] 0.046 | saracatinib -0.003 | sotrastaurin 0.014

SUCLA2 (UniProt Q9P2R7)
inactive: vemurafenib -0.003 | [1] 0.003 | barasertib 0.008 | [2] -0.041 | volasertib -0.04 | [3] 0.006 | [4] -0.174 | [5] 0.066 | saracatinib 0.006 | sotrastaurin 0.001

SUGP1 (UniProt Q8IWZ8)
inactive: vemurafenib -0.029 | [1] 0.001 | barasertib -0.001 | [2] 0.051 | volasertib -0.007 | [3] 0.014 | [4] -0.014 | [5] 0.04 | saracatinib 0.012 | sotrastaurin 0.028
